# Experimental data reported in paper PMC3637499.
# No constants are given. Whether binding was seen depends on the method and setting. Binding seen in cells or lysates may run through a third protein.
# B1: Delta-RFP (protein, UniProt P10041 19-833)
# chain: QVHSSGSFELRLKYFSNDHGRDNEGRCCSGESDGATGKCLGSCKTRFRVCLKHYQATIDTTSQCTYGDVITPILGENSVNLTDAQRFQNKGFTNPIQFPFSFSWPGTFSLIVEAWHDTNNSGNARTNKLLIQRLLVQQVLEVSSEWKTNKSESQYTSLEYDFRVTCDLNYYGSGCAKFCRPRDDSFGHSTCSETGEIICLTGWQGDYCHIPKCAKGCEHGHCDKPNQCVCQLGWKGALCNECVLEPNCIHGTCNKPWTCICNEGWGGLYCNQDLNYCTNHRPCKNGGTCFNTGEGLYTCKCAPGYSGDDCENEIYSCDADVNPCQNGGTCIDEPHTKTGYKCHCANGWSGKMCEEKVLTCSDKPCHQGICRNVRPGLGSKGQGYQCECPIGYSGPNCDLQLDNCSPNPCINGGSCQPSGKCICPAGFSGTRCETNIDDCLGHQCENGGTCIDMVNQYRCQCVPGFHGTHCSSKVDLCLIRPCANGGTCLNLNNDYQCTCRAGFTGKDCSVDIDECSSGPCHNGGTCMNRVNSFECVCANGFRGKQCDEESYDSVTFDAHQYGATTQARADGLTNAQVVLIAVFSVAMPLVAVIAACVVFCMKRKRKRAQEKDDAEARKQNEQNAVATMHHNGSGVGVALASASLGGKTGSNSGLTFDGGNPNIIKNTWDKSVNNICASAAAAAAAAAAADECLMYGGYVASVADNNNANSDFCVAPLQRAKSQKQLNTDPTLMHRGSPAGSSAKGASGGGPGAAEGKRISVLGEGSYCSQRWPSLAAAGVAGACSSQLMAAASVAGSGAGTAQQQRSVVCGTPHM
# Biological target: Lnk-CFP (Drosophila)
# Assay: FRET or BRET; sensitised emission FRET, negative controls with Delta-RFP as acceptor in fixed larval salivary glands; insulin condition not stated; absence of FRET yields values <3%
binder,measurement,value
B1,binding,no binding (tested: FRETeff < 3%)
